{"source": "paper PMC4906244", "key": {"[1]": {"tested_on": "His6-ComPsub (Neisseria subflava NJ9703)", "assay": "SPR", "conditions": "10-200 uM protein, SPR: 20 mM Tris pH 8, 150 mM NaCl, 0.05% Tween 20, 25 C, recombinant protein, protein details: N-terminal non-cleavable His6"}, "[2]": {"tested_on": "MBP-ComPsub (Neisseria subflava NJ9703)", "assay": "EMSA", "conditions": "0.8 uM protein, 2.5 mM Mg2+, EMSA: 20 mM Tris-Cl pH 8, 50 mM NaCl, ambient temperature, recombinant protein, label: biotin on DUSvar11b strand (S9)"}, "[3]": {"tested_on": "His6-ComPsub (Neisseria subflava NJ9703)", "assay": "NMR titration (1H-15N HSQC CSP)", "conditions": "100 uM protein, 4-120 uM DNA; NMR: 50 mM sodium phosphate pH 6, 50 mM NaCl, 10% D2O (295 K stated for the structure spectra); recombinant protein; protein details: N-terminal non-cleavable His6"}, "[4]": {"tested_on": "MBP-ComPsub (Neisseria subflava NJ9703)", "assay": "competition EMSA", "conditions": "2.5 mM Mg2+, EMSA: 20 mM Tris-Cl pH 8, 50 mM NaCl, ambient temperature, recombinant protein"}}, "note": "The exact form of at least one protein or probe is not confirmed. For part of these data: Negatives hold for the conditions tested. For part of these data: Weaker means in comparison with the reference protein, sequence or condition of that experiment.", "data": [{"sequence": "TGACCACGACTTATAATCAAAC (double strand) [SUD ds primer (biotinylated)]", "values": [{"measurement": "binding result", "setting": "[1]; much lower Req than DUSvar1, not saturating, label: biotin on SUD1b strand (S11)", "value": "binds more weakly"}]}, {"sequence": "TGACCAGGCCGTCTGAACAAAC (double strand) [DUSvar1 ds primer (biotinylated)]", "values": [{"measurement": "binding result", "setting": "[2]", "value": "binds"}]}, {"sequence": "TGACCAAGGCCTGTCATCAAAC (double strand) [SDU ds primer (biotinylated)]", "values": [{"measurement": "binding result", "setting": "[1]; much lower Req than DUSvar1, label: biotin on SDU1b strand (S13)", "value": "binds more weakly"}]}, {"sequence": "CAGGCCGTCTGAAC (double strand) [DUSvar1bis ds primer (NMR)]", "values": [{"measurement": "binding result", "setting": "[3]", "value": "binds"}]}, {"sequence": "TGACCACGACTTATAATCAAAC (double strand) [SUD ds primer (unlabeled)]", "values": [{"measurement": "binding result", "setting": "[4]; vs biotinylated DUSvar1, no effect at 0.7-180 pmol", "value": "no binding"}]}, {"sequence": "TGACCAGGCCGTCTGAACAAAC (double strand) [DUSvar1 ds primer (unlabeled)]", "values": [{"measurement": "binding result", "setting": "[4]; vs biotinylated DUSvar1, 0.7-180 pmol competitor", "value": "binds"}]}]}
